For at least one compound, name, drawing or mass did not settle the structure.
Legend:
KRAS G12D transcript = KRAS G12D transcript knockdown in Panc-1 cells; format: cell-based, human; settings: FIG. 14, samples #9, #10 vs #4-8
Description: XD-08318 was loaded into exosomes by electroporation in the presence or absence of free radical scavengers. As a control, XD-08318 was transfected into the human pancreatic cancer cell line Panc-1, which is heterozygous for the G12D mutant transcript of KRAS. […] As controls, in the absence of any transfection reagent, Panc-1 cells were incubated with a mixture of the siRNA and exosomes without electroporation (mix), siRNA only, exosomes alone (EV only), or in the presence of siRNA and exosomes that were electroporated individually (si EP+EV EP Mix). […] Next, XD-08318 was loaded into exosomes by electroporation at pulse code 42 (sample 4) and incubated with cells, resulting in a modest ˜30% repression of the target transcript.

[1] = Anion exchange chromatography (AEX) of siRNA before and after electroporation; format: physicochemical
Description: Anion exchange chromatography (AEX) was carried out on an Agilent 1100 HPLC using a […] PA200 column (Thermo Scientific). The column was equilibrated in 50 mM Tris pH 7.4, and 20 ng of each siRNA sample was prepared in a 100 μl HPLC vial for injection. The sample was injected and subjected to a gradient of 50 mM Tris pH 7.4 (mobile phase A) and 50 mM Tris, 1 M NaCl, pH 7.4 (mobile phase B) according to Tables 1 and 2, below. Electroporation is a common method for introducing nucleic acids into cells and other lipid structures such as exosomes. As an analytical method, siRNAs were analyzed by anion exchange chromatography (AEX), as described above, before and after electroporation. […] XD-08318 is a modified siRNA that contains a 5' terminal deoxyribose residue on the antisense strand, a combination of natural ribose and synthetic 2'-O-methyl ribose residues, and phosphorothioate linkages at the 3' ends of each strand (FIG. 2). Synthetic RNA XD-08318 was electroporated in the presence of several free radical scavengers and reducing agents as excipients.

Question: With `O=C1O[C@H]([C@@H](O)CO)C(O)=C1O` [ascorbate] as the compound, how does the “knock-down by modified siRNA electroporated into exosomes in presence of the scavenger, compared to absence of free radical scavengers” value (KRAS G12D transcript) read?
Answer: increased knock-down

Question: What about the “effect of excipient on AEX spectral shift of XD-08318 after electroporation” value ([1]; MaxCyte intermediate pulse code 63 (high field strength, low frequency)) of the same compound?
Answer: prevented the spectral shift

Question: What about the “effect of excipient on AEX spectral shift of XD-08318 after electroporation” value ([1]; MaxCyte strong pulse code 66 (high field strength, high frequency)) of the same compound?
Answer: prevented the spectral shift
